Data reported in US20220074941A1, “HSP90 COMBINATION THERAPY” (Sloan-Kettering Institute for Cancer Research, priority 2011, published 2022).

System: Hsp90 complexes in K562 cell extract
Assay: Nano-LC-MS/MS of PU-beads pull-downs
Format: binding
Details: for Matched Peptides by Fraction JA07 / Matched Peptides by Fraction JA14 / MAXIMUM matched peptides / Matched Peptides by Fraction JA01 / Matched Peptides by Fraction JA08 / Matched Peptides by Fraction JA06 / Matched Peptides by Fraction JA13 / Matched Peptides by Fraction JA02 / Matched Peptides by Fraction JA09 / Matched Peptides by Fraction JA05 / Matched Peptides by Fraction JA04 / Matched Peptides by Fraction JA03 / Matched Peptides by Fraction JA11 / Matched Peptides by Fraction JA10 / Matched Peptides by Fraction JA12: PU-beads pull-down; for Matched Peptides by Fraction JA07: Run1, gel size cut <40; for Matched Peptides by Fraction JA14: Run2, gel size cut <40; for MAXIMUM matched peptides: maximum over fractions JA01-JA14; for Total fmol: protein isolated in PU-beads pull-downs, Waters Xevo QTof MS; for Matched Peptides by Fraction JA01: Run1, gel size cut >200; for Matched Peptides by Fraction JA08: Run2, gel size cut >200; for Matched Peptides by Fraction JA06: Run1, gel size cut 40-60; for Matched Peptides by Fraction JA13: Run2, gel size cut 40-60; for Matched Peptides by Fraction JA02: Run1, gel size cut 150-200; for Matched Peptides by Fraction JA09: Run2, gel size cut 150-200; for Matched Peptides by Fraction JA05: Run1, gel size cut 60-80; for Matched Peptides by Fraction JA04: Run1, gel size cut 80-110; for Matched Peptides by Fraction JA03: Run1, gel size cut 110-150; for Matched Peptides by Fraction JA11: Run2, gel size cut 80-110; for Matched Peptides by Fraction JA10: Run2, gel size cut 110-150; for Matched Peptides by Fraction JA12: Run2, gel size cut 60-80
Protocol: Protein cargo isolated from cell lysate with PU-beads or control-beads was subjected to proteomic analysis by nano liquid chromatography coupled to tandem mass spectrometry (nano LC-MS/MS). Initial protein identification was performed using the Mascot search engine, and was further evaluated using Scaffold Proteome Software (Tables 5a-d).
Lysates prepared as mentioned above were first pre-cleaned by incubation with control beads overnight at 4° C. […] Beads were washed with lysis buffer, proteins eluted by boiling in 2% SDS, separated on a denaturing gel and Coomassie stained according to manufacturer's procedure (Biorad). […] Analyses of the batch purified pools were done using a QSTAR-Elite hybrid quadrupole time-of-flight mass spectrometer (QTof MS) (AB/MDS Sciex), equipped with a nano spray ion source. Peptide mixtures (in 20 μL) are loaded onto a trapping guard column (0.3×5-mm PepMap C18 100 cartridge from LC Packings) using an Eksigent nano MDLC system (Eksigent Technologies, Inc) at a flow rate of 20 μL/min. […] Electrospray ionization (ESI) needle voltage was set at about 1800 V. The mass analyzer is operated in automatic, data-dependent MS/MS acquisition mode, with the threshold set to 10 counts per second of doubly or triply charged precursor ions selected for fragmentation scans. Survey scans of 0.25 sec are recorded from 400 to 1800 amu; up to 3 MS/MS scans are then collected sequentially for the selected precursor ions, recording from 100 to 1800 amu. The collision energy is automatically adjusted in accordance with the m/z value of the precursor ions selected for MS/MS. Selected precursor ions are excluded from repeated selection for 60 sec after the end of the corresponding fragmentation duty cycle. […] One missed tryptic cleavage site was allowed, precursor ion mass tolerance=0.4 Da fragment ion mass tolerance=0.4 Da, protein modifications were allowed for Met-oxide, Cys-acrylamide and N-terminal acetylation. MudPit scoring was typically applied with ‘require bold red’ activated, and using significance threshold score p<0.05. Unique peptide counts (or ‘spectral counts’) and percent sequence coverages for all identified proteins were exported to Scaffold Proteome Software (version 2_06_01, www.proteomesoftware.com) for further bioinformatic analysis (Table 5a). Using output from Mascot, Scaffold validates, organizes, and interprets mass spectrometry data, allowing more easily to manage large amounts of data, to compare samples, and to search for protein modifications.

Substance	Matched Peptides by Fraction JA07	Matched Peptides by Fraction JA14	MAXIMUM matched peptides	Total fmol [fmol]	Matched Peptides by Fraction JA06	Matched Peptides by Fraction JA13	further results
5′-AMP-activated protein kinase subunit gamma-1; PRKAG1	19	19	19	25.9468			
14-3-3 protein epsilon; YWHAE	15	17	17	20.1372			
14-3-3 protein gamma; YWHAG	12	12	12	25.6664			
182 kDa tankyrase-1-binding protein			22	7.9788			Matched Peptides by Fraction JA01: 12; Matched Peptides by Fraction JA08: 22
Activator of 90 kDa heat shock protein ATPase homolog 1; AHSA1			12	19.5699	12	12	
Casein kinase II subunit beta	3	5	5	9.0324			
DNA-dependent protein kinase catalytic subunit			251	71.4210			Matched Peptides by Fraction JA02: 30; Matched Peptides by Fraction JA01: 236; Matched Peptides by Fraction JA09: 41; Matched Peptides by Fraction JA08: 251
Dedicator of cytokinesis protein 2; DOCK2			16	4.2624			Matched Peptides by Fraction JA02: 5; Matched Peptides by Fraction JA09: 16
DnaJ homolog subfamily A member 1			26	49.8849	26	26	
DnaJ homolog subfamily A member 2			23	31.2111	23	22	
E3 ubiquitin-protein ligase CHIP	14	12	14	30.9572			
E3 ubiquitin-protein ligase UBR4			128	20.1396			Matched Peptides by Fraction JA01: 112; Matched Peptides by Fraction JA08: 128
ELAV-like protein 1	20	21	21	55.2953			
Endoplasmin; GRP94	4	7	79	127.8154	14	20	Matched Peptides by Fraction JA05: 22; Matched Peptides by Fraction JA04: 79; Matched Peptides by Fraction JA03: 21; Matched Peptides by Fraction JA11: 71; Matched Peptides by Fraction JA10: 48
Filamin-A			46	8.4872			Matched Peptides by Fraction JA01: 42; Matched Peptides by Fraction JA08: 46
Growth factor receptor-bound protein 2; Grb2	15	16	16	20.7753			
Heat shock 70 kDa protein 1A/1B			82	115.7597			Matched Peptides by Fraction JA05: 65; Matched Peptides by Fraction JA12: 82
Heat shock 70 kDa protein 6			44	1.6158			Matched Peptides by Fraction JA05: 39; Matched Peptides by Fraction JA12: 44

Substance	Matched Peptides by Fraction JA07	Matched Peptides by Fraction JA14	MAXIMUM matched peptides	Total fmol [fmol]	Matched Peptides by Fraction JA06	Matched Peptides by Fraction JA13	further results
Heat shock cognate 71 kDa protein			105	211.9690			Matched Peptides by Fraction JA05: 73; Matched Peptides by Fraction JA12: 105
Heat shock protein HSP 90-alpha	14	11	234	1351.4965	38		Matched Peptides by Fraction JA05: 47; Matched Peptides by Fraction JA04: 209; Matched Peptides by Fraction JA03: 7; Matched Peptides by Fraction JA01: 6; Matched Peptides by Fraction JA11: 234; Matched Peptides by Fraction JA10: 20; Matched Peptides by Fraction JA08: 14
Heat shock protein HSP 90-beta	20	19	260	2708.8638	55	51	Matched Peptides by Fraction JA05: 54; Matched Peptides by Fraction JA04: 260; Matched Peptides by Fraction JA03: 11; Matched Peptides by Fraction JA02: 5; Matched Peptides by Fraction JA01: 14; Matched Peptides by Fraction JA12: 57; Matched Peptides by Fraction JA11: 242; Matched Peptides by Fraction JA10: 24; Matched Peptides by Fraction JA09: 5; Matched Peptides by Fraction JA08: 25
Heat shock protein beta-1; Hsp27	24	21	24	162.0092			
Heat shock-related 70 kDa protein 2			45	7.7656			Matched Peptides by Fraction JA05: 37; Matched Peptides by Fraction JA12: 45
Histone H1.2	7	6	7	7.5569			
Histone deacetylase 1; HDAC1			16	19.2088			Matched Peptides by Fraction JA05: 11; Matched Peptides by Fraction JA12: 16
Histone deacetylase 2; HDAC2			11	15.8525			Matched Peptides by Fraction JA05: 7; Matched Peptides by Fraction JA12: 11
Histone deacetylase 3; HDAC3			13	9.1175	9	13	
Histone deacetylase 6; HDAC6			11	8.6654			Matched Peptides by Fraction JA02: 11; Matched Peptides by Fraction JA09: 9
Hsp90 co-chaperone Cdc37			17	45.9047	17	16	
Interleukin enhancer-binding factor 2; ILF2			25	48.8644	25	20	
Mitogen-activated protein kinase 1; MAPK1; ERK-2			79	79.3199	79	65	
Mitogen-activated protein kinase 3; ERK-1			27	6.6438	27	27	
Mitogen-activated protein kinase 6; ERK3			11	3.0471	9	11	
Mitogen-activated protein kinase 9; JNK2			12	3.5130	12		Matched Peptides by Fraction JA05: 7
Mitogen-activated protein kinase 14; p38			11	2.1763	9	11	
